A short description of the test: qHTS Assay to Find Inhibitors of Chronic Active B-Cell Receptor Signaling. The settings on record: ABC-DLBCL IkBa-CBG/CBR reporter, luminescence ratio (green luciferase fused to IkBa over red control in TMD8 lymphoma cells), 4 h. A digest of the protocol: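 Compounds up to 46 uM were incubated four hours with TMD8 cells whose green CBG68 luciferase is fused to IkappaBalpha; red CBR luminescence normalised the signal, and concentration-effect curves were fitted to fusion, red and ratio data.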

Setting [1] is: measured here: CBR red luminescence, cell number.
[2] abbreviates: measured here: IkBa-CBG green luminescence.

This passage reports AC50 results from PubChem BioAssay AID493014 (National Center for Advancing Translational Sciences (NCATS), 2011).

Each structure is given as a SMILES string. Several values for one entry are separate records, joined by “and”; a condition that tells them apart may be missing. Equal values may be shown once. The list shows a part of the results. Further columns of the screen follow, without active or inactive calls. Most of these compounds were active or inconclusive in the main read-out, so they are no random draw. Potencies come from curve fits of mixed quality, noted in brackets.

By AC50 is commonly meant the midpoint of the concentration-response curve, whichever way the signal moves. For `CNCCCOc1ccc(C(C)(C)c2ccccc2)cc1`, the half-maximal activity concentration (AC50) runs as follows: under setting [1], 13 µM [falling, partial curve, poor fit]; under setting [2], 16.4 µM [rising, partial curve, poor fit].
With `CCCCCOc1ccc(CSC2=NCCN2)cc1[N+](=O)[O-]`, the AC50 under setting [1] was 29.1 µM [falling, single point].
In the case of `COc1ccccc1/C=C1\SC(N2CCC(C)CC2)=NC1=O`, the concentration at half-maximal activity (AC50) under setting [1] is 35.5 µM [falling, partial curve, poor fit].
As to `COC(CN1C(=O)C(=O)/C(=C(/O)c2ccccc2)C1c1ccccn1)OC` (configuration not stated), the half-maximal activity concentration (AC50) under setting [1] was 1 µM [rising, full curve, poor fit].
`COc1ccc(C(=O)N2CCNC(=O)C2)cc1S(=O)(=O)Nc1ccc(Br)cc1`: the AC50 under setting [1] is 23.1 µM [rising, partial curve] and the half-maximal activity concentration (AC50) under setting [2] was 23.1 µM [falling, partial curve, poor fit].
As to `CC(=O)N1CCn2c3c(c(=O)c4cc(C)ccc42)CCC31` (configuration not stated), the half-maximal activity concentration (AC50) under setting [1] is 32.6 µM [falling, single point].
Still for that read-out and setting: the result for `COc1ccc(NC(=S)c2ccc(N(C)C)cc2)cc1` reads 18.4 µM [rising, single point]; that for `COCCNC(=O)CSc1ccc(Cl)cc1`, 3.16 µM [rising, partial curve].
Consider `Cn1c(=O)c2c(nc(N/N=C/c3ccco3)n2C)n(C)c1=O`, for which the AC50 under setting [1] is 8.91 µM [falling, partial curve].
In the case of `CCN1CCN(c2oc(-c3ccco3)nc2C#N)CC1`, the concentration at half-maximal activity (AC50) under setting [1] is 31.6 µM [rising, single point].
Take `CCOc1ccccc1NC(=O)Nc1cc(C(=O)O)ccc1C`: under setting [1], the concentration at half-maximal activity (AC50) is 10 µM [rising, partial curve, poor fit].
On the same count and under the same terms, for `CC12CC3(C)CC(C)(C1)CC(NC(=O)N1CCCC1)(C2)C3` the value was 4.11 µM [falling, single point]; for `COC(=O)c1c(-c2cccc(C)c2)csc1NC(=O)C1CCCO1` (configuration not stated), 2.82 µM [rising, partial curve, poor fit].
Same read-out and setting: for `O=C(O)c1ccc(CSc2n[nH]c(-c3ccco3)n2)cc1` the value was 10 µM [falling, partial curve, poor fit]; for `COCC(=O)Nc1cc(C(=O)Nc2cccc(C)c2C)ccc1Cl`, 14.6 µM [falling, partial curve, poor fit]; for `COCCNC(=O)c1c[nH]c2ccc(S(=O)(=O)N3CCc4ccccc43)cc2c1=O`, 22.4 µM [falling, partial curve, poor fit].
Turning to `Cc1ccc(CNC(=O)Cn2nnc3ccccc3c2=O)cc1`, the AC50 under setting [1] was 20 µM [falling, single point].
For the compound `O=C(Nc1cccc(-c2csc(-c3ccccc3)n2)c1)c1cccs1`, the AC50 under setting [1] is 18.4 µM [falling, partial curve, poor fit].
The same measure, in the same setting: for `Cc1ccc(NC(=O)COC(=O)C2=COCCO2)c([N+](=O)[O-])c1` the value was 22.4 µM [rising, single point].
As to `N#Cc1cccc(NC(=O)COC(=O)c2ccccc2C(=O)c2ccc(Cl)c([N+](=O)[O-])c2)c1`, the AC50 was 7.31 µM [falling, partial curve] under setting [1] and 5.17 µM [rising, partial curve, poor fit] under setting [2].
For `O=C(CCS(=O)(=O)c1ccccc1)Nc1cccc2c1C(=O)NC2=O`, the half-maximal activity concentration (AC50) under setting [1] is 5.62 µM [rising, partial curve].
Same read-out and setting: the result for `CCCCC(=O)Nc1ccc(C(=O)Nc2cc(C(F)(F)F)ccc2Cl)cc1` reads 6.51 µM [rising, single point]; that for `CCOC(=O)c1c(C)c(C(=O)NC(C)COC)c(C)n1C` (configuration not stated), 29.1 µM [rising, single point]; that for `Cc1ccccc1C(=O)OC1OC(=O)C(Cl)=C1Nc1ccccc1` (configuration not stated), 25.1 µM [falling, single point].
Consider `CCOc1ccc(-n2nc3cc(C)c(N)cc3n2)cc1`, for which, under setting [1], the concentration at half-maximal activity (AC50) is 3.16 µM [rising, partial curve, poor fit].
On to `CC(=O)N(Cc1ccccc1)c1nc(-c2ccccc2)cs1`, for which the AC50 under setting [1] was 8.91 µM [rising, partial curve].
On to `COc1ccc(C(CNC(=O)COc2cccc(C(F)(F)F)c2)N2CCCC2)cc1` (configuration not stated), for which the half-maximal activity concentration (AC50) under setting [1] is 7.31 µM [falling, full curve, poor fit].
Same read-out and setting: the result for `CC(C)Cc1ccc(C(=O)NCc2ccc3c(c2)OCO3)o1` reads 35.5 µM [falling, single point].
On the same count and under the same terms, the result for `N#Cc1ccc(OCc2ccc(C(=O)O)o2)cc1` reads 17.8 µM [falling, single point].
On to `Cn1c(=O)c2c(n(C)c1=O)=NC1(CCCCC1)ON=2`, for which, under setting [1], the AC50 is 0.13 µM [rising, full curve, poor fit].
Consider `O=C1CC(c2ccccc2Cl)=NN(c2ncnc3ccccc23)C1=O`, for which the AC50 under setting [1] was 7.94 µM [falling, partial curve].
As to `C=CCC[C@H](Cc1ccc(F)cc1)C(=O)OC[C@H](C)NC(=O)[C@H](CC=C)CC(=O)N(CCO)Cc1ccccc1`, the AC50 under setting [1] was 20.6 µM [falling, partial curve, poor fit].
Consider `Cc1cc(C(=O)Nc2c(C)n(C)n(-c3ccccc3)c2=O)cs1`, for which the half-maximal activity concentration (AC50) under setting [1] was 0.0116 µM [rising, full curve, poor fit].
Still for that read-out and setting: the result for `CCN(CC)CCn1c(=S)[nH]c2ncccc2c1=O` reads 2.31 µM [rising, single point].
Same read-out and setting: the result for `COc1cccc(-c2nc(CS(=O)CC(=O)NC3CCCC3)c(C)o2)c1` (configuration not stated) reads 29.1 µM [rising, single point]; that for `CCn1ncc(Br)c1C(=O)Nc1ccc(C(C)C)cc1`, 3.16 µM [rising, full curve, poor fit].
The same measure, in the same setting: for `O=C(Nc1nnc(-c2ccccc2Cl)o1)c1cccnc1` the value was 18.4 µM [falling, partial curve, poor fit]; for `O=C(NCCC1=CCCCC1)c1cnsn1`, 8.2 µM [rising, partial curve, poor fit]; for `CC#CCN(CC#CC)S(=O)(=O)c1ccc(-n2cnnn2)c(OC)c1`, 17.8 µM [rising, partial curve, poor fit].
With `CCCOc1cccc(-c2cc(-c3n[nH]c(=S)n3CC)c3ccccc3n2)c1`, under setting [2], the AC50 was 14.1 µM [rising, partial curve, poor fit].
Regarding `COc1ccccc1N(C)S(=O)(=O)c1ccc(C(=O)N2CCCc3ccccc32)cc1`, the AC50 runs as follows: under setting [1], 10 µM [falling, partial curve, poor fit]; under setting [2], 12.6 µM [rising, partial curve, poor fit].
As to `O=C(O)C[C@@H]1C(=O)O[C@@H]2C(COC(=O)c3cc(O)c(O)c(O)c3)O[C@@H](OC(=O)c3cc(O)c(O)c(O)c3)[C@@H](OC(=O)c3cc(O)c(O)c4c3[C@H]1[C@H](O)C(=O)O4)[C@H]2OC(=O)c1cc(O)c(O)c(O)c1` (some centres not stated), under setting [1], the AC50 was 20 µM [falling, single point].
Still for that read-out and setting: the result for `CCOC(=O)C(C(=O)OCC)C(C(=O)OCC)N1CCOCC1` (configuration not stated) reads 0.517 µM [falling, full curve, poor fit].
With `CC(C)(C)CC(C)(C)c1ccc(OCCOCC[N+](C)(C)Cc2ccccc2)cc1`, the AC50 under setting [1] was 25.9 µM [falling, partial curve, poor fit] and the AC50 under setting [2] is 32.6 µM [rising, partial curve, poor fit].
For `Cc1ccc([C@H]2C(C#N)=C(N)Oc3cc(C)oc(=O)c32)o1`, the AC50 is 12.6 µM [falling, single point] under setting [1] and 15.8 µM [rising, partial curve, poor fit] under setting [2].
As to `Cc1cc(NNC(=O)c2ccccc2)nc(NNC(=O)c2ccccc2)n1`, the AC50 under setting [1] is 20 µM [falling, single point].
For `CCOCCCNC(=O)CN1C(=O)/C(=C\c2ccc(C)cc2)Sc2ccccc21`, the AC50 under setting [1] is 14.6 µM [rising, partial curve].
Take `CN(Cc1ccco1)Cc1ccc(O)c2ncccc12`: the concentration at half-maximal activity (AC50) under setting [1] was 14.6 µM [rising, partial curve]; the AC50 under setting [2] was 29.1 µM [falling, single point] and 18.4 µM [falling, single point].
`COC(=O)c1ccc(NC(=S)NN2CCOCC2)cc1`: the concentration at half-maximal activity (AC50) under setting [1] is 1.41 µM [falling, full curve, poor fit].
Turning to `COc1ccc(S(=O)(=O)NC(C)C(=O)NCCN2CCOCC2)cc1Cl` (configuration not stated), the AC50 under setting [1] was 0.631 µM [rising, full curve, poor fit].
In the case of `COc1ccccc1N=C(C)C1=C(O)COC1=O`, the AC50 under setting [1] was 16.4 µM [falling, partial curve, poor fit].
On to `Cc1ccc(NC(=O)COC(=O)CNC(=O)C2CCCCC2)cc1S(=O)(=O)N(C)C`, for which the AC50 under setting [1] is 23.1 µM [rising, single point].
On to `C=CC(C)(C)c1c2occc2c(O)c2ccc(=O)oc12`, for which, under setting [1], the half-maximal activity concentration (AC50) is 29.1 µM [falling, single point].
Same read-out and setting: for `CN(C)CCOC(C1CCCCC1)C1CCCCC1` the value was 0.0517 µM [falling, full curve, poor fit]; for `CCN(CC(=O)Nc1c(F)cccc1F)C(=O)CNC(=O)c1sc2ccccc2c1Cl`, 1.03 µM [rising, full curve, poor fit]; for `Cc1nc(SCC#N)c2c3c(sc2n1)CCC3`, 9.2 µM [rising, single point].
Still for that read-out and setting: for `CCCS(=O)(=O)c1ccc(COC(=O)c2cccc(NC(=O)C(C)C)c2)cc1` the value was 17.8 µM [falling, single point].
Take `O=C(Nc1ccc(-c2cccc(F)c2)cc1)C1CCCN(Cc2ccccn2)C1` (configuration not stated): the AC50 under setting [1] is 35.5 µM [falling, single point].
The same measure, in the same setting: the result for `CC(CNc1ccc([N+](=O)[O-])cc1)NC(=O)c1ccccc1Br` (configuration not stated) reads 4.11 µM [rising, single point]; that for `Cc1cc(N2CCC(C)CC2)n2ncc(-c3ccccc3)c2n1`, 0.447 µM [rising, full curve, poor fit].
